The values that follow come from patent publication US11040011B2 (priority 2016, dated 2021).

This series in a line: Metal meloxicam complex precipitation and dissolution of the precipitate in organic solvents. The settings on record: 1:1 process, 20 mM MLX pH 8.2 + 20 mM metal chloride pH 5.5. In kind it is physicochemical.

As to Copper(II), the “MLX not precipitated (% in Supernatant)” value was 17%.
With Magnesium (II) the figure was 71%.
